Assay results reported in the supplement of paper PMC7666118.
The other results are listed elsewhere or left out.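 Rule for the calls: active = dose-dependent thermal stabilisation significant by F-test of dose-response against flat model at 10% FDR; inactive = not significant.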

Chains of the proteins cited; added tags and fusions are not shown. Lines headed by an entry give the natural chain unless they say otherwise; changes in a name come on top.
UniProt Q8NEM2: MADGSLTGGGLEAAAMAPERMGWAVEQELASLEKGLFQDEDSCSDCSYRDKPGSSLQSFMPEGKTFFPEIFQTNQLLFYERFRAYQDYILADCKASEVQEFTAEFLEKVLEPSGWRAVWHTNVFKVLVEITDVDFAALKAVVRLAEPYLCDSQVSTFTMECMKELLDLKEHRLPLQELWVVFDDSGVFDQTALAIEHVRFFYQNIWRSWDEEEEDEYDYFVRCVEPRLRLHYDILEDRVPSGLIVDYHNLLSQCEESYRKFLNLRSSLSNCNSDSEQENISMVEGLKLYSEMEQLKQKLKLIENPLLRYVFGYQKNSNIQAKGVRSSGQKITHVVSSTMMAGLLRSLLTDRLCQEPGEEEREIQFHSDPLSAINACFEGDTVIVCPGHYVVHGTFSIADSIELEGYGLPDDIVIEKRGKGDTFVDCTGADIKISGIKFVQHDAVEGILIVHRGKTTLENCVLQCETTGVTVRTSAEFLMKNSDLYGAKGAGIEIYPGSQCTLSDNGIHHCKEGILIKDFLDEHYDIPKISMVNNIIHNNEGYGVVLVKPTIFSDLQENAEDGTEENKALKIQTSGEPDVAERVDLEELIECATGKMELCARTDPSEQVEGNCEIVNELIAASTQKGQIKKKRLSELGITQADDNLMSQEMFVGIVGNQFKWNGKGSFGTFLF
UniProt Q9NRL3: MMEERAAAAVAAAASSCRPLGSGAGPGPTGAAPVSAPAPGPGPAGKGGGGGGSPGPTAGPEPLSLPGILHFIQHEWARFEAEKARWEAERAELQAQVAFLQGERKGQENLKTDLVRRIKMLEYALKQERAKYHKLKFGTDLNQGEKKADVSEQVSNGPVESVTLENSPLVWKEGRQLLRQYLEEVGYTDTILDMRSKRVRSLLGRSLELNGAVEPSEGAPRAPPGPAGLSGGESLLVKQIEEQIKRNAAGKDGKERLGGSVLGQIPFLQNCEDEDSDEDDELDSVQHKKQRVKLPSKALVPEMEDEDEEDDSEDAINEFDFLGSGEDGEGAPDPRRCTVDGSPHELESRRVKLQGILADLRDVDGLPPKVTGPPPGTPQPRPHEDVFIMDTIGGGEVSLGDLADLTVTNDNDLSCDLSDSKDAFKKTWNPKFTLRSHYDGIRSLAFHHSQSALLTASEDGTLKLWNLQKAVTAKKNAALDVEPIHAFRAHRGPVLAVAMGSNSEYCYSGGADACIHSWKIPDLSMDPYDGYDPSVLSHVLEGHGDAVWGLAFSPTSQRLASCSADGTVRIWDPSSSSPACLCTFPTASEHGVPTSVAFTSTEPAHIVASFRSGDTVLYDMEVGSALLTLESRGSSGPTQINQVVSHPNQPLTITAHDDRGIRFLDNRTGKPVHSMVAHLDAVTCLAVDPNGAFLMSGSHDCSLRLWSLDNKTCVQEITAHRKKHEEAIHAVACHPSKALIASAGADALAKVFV
UniProt P84103: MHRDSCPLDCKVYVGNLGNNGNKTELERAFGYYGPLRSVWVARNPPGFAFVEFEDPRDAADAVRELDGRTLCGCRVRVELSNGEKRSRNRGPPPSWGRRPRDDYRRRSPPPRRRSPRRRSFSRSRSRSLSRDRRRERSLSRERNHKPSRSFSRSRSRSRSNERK
UniProt O95347, whole entry: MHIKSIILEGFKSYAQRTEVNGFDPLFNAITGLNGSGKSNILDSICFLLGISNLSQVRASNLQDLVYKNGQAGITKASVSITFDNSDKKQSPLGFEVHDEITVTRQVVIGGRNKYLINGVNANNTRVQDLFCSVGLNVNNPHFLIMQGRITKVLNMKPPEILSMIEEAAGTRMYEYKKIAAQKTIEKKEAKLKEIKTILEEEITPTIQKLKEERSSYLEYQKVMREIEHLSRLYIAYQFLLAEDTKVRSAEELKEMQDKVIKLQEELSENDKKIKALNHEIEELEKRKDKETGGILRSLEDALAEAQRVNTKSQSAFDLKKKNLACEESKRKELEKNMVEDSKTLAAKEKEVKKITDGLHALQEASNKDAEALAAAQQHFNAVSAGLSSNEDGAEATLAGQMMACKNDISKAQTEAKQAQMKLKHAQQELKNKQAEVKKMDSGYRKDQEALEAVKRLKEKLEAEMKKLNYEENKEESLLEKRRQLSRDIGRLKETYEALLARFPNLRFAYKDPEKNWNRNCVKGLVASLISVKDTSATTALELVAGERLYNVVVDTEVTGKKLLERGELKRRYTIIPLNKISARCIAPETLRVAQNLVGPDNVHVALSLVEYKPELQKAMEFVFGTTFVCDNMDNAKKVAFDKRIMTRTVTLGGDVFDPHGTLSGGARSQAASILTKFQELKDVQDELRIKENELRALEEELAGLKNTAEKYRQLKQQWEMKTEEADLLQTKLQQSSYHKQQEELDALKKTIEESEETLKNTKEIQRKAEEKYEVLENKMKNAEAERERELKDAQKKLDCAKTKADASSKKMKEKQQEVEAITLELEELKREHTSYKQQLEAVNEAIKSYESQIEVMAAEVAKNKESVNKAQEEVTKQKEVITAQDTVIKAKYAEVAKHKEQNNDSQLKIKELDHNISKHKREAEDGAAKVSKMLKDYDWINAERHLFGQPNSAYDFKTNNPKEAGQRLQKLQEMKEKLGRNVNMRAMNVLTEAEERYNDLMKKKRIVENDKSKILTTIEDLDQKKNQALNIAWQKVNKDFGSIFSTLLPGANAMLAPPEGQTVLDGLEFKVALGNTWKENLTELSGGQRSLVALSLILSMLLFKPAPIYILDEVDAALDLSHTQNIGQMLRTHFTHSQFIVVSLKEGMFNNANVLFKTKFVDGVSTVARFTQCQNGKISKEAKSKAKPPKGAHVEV
UniProt P49458: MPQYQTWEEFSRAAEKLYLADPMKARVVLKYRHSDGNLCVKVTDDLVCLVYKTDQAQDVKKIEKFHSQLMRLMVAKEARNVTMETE
UniProt Q96ST3: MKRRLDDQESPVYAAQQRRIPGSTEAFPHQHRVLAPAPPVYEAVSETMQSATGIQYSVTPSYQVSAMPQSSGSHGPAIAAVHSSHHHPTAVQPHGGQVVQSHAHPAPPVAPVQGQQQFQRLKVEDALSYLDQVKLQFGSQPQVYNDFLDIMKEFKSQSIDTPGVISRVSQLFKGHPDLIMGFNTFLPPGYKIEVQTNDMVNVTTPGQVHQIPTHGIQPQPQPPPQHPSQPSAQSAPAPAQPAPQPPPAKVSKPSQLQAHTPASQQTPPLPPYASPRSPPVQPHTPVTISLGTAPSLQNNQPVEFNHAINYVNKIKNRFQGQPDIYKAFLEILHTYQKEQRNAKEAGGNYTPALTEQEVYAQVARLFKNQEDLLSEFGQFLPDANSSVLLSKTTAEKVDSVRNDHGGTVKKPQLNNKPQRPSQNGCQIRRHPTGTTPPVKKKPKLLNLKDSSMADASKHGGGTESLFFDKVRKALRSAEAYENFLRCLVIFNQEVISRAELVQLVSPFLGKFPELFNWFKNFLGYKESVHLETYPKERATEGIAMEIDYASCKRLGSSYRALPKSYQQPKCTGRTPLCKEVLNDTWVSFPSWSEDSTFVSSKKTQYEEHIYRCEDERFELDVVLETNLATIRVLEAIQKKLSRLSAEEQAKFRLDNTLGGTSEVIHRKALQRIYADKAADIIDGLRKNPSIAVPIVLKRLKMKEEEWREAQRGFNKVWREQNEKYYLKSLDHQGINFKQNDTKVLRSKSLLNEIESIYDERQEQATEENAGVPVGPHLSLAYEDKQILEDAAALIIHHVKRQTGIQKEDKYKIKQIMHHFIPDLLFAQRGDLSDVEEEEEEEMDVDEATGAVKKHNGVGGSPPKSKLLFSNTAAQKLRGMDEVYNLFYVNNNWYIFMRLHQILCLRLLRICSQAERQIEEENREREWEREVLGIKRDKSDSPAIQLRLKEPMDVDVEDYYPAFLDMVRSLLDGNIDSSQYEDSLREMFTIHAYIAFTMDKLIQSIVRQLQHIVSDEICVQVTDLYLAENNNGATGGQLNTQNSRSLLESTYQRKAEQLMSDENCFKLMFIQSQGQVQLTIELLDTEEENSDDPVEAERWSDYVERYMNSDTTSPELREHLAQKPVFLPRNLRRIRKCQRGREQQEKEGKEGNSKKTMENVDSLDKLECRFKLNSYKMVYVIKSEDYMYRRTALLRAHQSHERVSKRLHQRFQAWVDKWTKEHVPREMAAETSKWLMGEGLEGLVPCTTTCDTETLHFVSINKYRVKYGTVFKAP
UniProt Q9Y5B9, whole entry: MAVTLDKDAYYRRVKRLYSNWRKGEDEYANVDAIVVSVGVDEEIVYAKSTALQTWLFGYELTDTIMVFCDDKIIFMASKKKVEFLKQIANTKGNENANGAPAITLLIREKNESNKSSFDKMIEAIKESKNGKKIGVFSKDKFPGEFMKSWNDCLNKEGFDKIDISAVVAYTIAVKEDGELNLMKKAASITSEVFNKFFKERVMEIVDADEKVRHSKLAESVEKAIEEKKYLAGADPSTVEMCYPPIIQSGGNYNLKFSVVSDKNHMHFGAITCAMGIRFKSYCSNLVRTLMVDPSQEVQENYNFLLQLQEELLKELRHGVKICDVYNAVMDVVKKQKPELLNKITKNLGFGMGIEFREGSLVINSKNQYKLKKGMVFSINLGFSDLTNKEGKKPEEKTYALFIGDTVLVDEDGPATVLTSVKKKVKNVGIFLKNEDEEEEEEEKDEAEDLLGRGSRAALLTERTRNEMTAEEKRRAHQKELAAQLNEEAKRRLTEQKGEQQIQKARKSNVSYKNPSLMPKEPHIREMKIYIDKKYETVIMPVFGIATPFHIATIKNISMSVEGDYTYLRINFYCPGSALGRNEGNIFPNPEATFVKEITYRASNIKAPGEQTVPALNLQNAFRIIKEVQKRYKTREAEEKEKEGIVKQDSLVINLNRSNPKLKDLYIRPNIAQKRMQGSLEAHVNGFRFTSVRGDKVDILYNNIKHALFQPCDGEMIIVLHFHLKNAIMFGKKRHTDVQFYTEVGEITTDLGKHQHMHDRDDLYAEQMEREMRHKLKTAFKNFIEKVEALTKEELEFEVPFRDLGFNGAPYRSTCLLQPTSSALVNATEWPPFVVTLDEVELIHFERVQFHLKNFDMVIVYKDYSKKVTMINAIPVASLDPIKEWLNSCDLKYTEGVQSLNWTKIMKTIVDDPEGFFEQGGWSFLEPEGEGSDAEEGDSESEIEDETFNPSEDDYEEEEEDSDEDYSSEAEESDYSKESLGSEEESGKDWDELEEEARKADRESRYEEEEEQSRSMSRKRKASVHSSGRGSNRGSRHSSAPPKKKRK
UniProt Q13190: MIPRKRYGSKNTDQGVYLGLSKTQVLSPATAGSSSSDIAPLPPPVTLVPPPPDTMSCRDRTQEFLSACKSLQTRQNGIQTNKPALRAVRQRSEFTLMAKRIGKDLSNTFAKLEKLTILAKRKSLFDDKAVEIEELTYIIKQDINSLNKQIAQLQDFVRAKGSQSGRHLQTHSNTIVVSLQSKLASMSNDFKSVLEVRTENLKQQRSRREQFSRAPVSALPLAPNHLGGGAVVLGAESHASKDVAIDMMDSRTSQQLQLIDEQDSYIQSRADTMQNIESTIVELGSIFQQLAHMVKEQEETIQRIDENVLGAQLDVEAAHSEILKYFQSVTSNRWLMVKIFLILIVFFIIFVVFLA
UniProt P63165, whole entry: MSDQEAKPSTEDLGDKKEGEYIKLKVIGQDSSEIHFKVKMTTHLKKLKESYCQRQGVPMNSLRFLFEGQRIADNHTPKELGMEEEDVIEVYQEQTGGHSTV
UniProt Q8IYB3: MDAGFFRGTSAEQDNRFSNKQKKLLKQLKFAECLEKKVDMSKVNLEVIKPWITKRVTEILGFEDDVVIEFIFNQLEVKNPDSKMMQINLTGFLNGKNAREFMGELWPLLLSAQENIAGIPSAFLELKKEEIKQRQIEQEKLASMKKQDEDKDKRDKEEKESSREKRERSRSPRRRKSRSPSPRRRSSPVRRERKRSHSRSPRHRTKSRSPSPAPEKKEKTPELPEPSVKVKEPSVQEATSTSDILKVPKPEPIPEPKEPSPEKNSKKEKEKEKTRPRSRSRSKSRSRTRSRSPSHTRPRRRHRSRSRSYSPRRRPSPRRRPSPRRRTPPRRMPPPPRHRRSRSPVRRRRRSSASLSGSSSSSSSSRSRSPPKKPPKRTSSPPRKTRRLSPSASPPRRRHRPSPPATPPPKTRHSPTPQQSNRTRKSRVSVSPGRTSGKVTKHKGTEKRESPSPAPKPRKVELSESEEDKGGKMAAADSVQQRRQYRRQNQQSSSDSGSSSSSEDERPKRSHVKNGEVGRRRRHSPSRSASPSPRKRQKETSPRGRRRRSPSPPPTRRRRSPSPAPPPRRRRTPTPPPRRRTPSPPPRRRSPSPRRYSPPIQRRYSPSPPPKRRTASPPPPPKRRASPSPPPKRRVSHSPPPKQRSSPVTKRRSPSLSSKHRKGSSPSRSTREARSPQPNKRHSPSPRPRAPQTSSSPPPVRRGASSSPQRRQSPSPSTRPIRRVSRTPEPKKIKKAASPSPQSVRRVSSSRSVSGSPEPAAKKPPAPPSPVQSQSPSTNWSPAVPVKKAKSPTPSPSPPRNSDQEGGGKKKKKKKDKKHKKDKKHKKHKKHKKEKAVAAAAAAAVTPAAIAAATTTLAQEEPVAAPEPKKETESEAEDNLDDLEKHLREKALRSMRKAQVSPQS

compound: Nc1nc2c(ncn2[C@@H]2O[C@H](COP(=O)(O)OP(=O)(O)OP(=O)(O)O)[C@@H](O)[C@H]2O)c(=O)[nH]1; assay: dose-dependent thermal stabilisation call (2D-TPP, DLPTP, 10% FDR) (binary (1 = stabilised)); higher = stabilised by the compound; details: system: Jurkat gel-filtered lysate; concentration range 1-500 µM

Target	dose-dependent thermal stabilisation call
SRSF2 (UniProt Q01130)	active: 1
SLC7A5 (UniProt Q01650)	inactive: 0
SNRPB2 (UniProt P08579)	inactive: 0
SHCBP1 (UniProt Q8NEM2)	inactive: 0
STMN1 (UniProt P16949)	inactive: 0
SMG9 (UniProt Q9H0W8)	inactive: 0
STRN4 (UniProt Q9NRL3)	inactive: 0
SSU72 (UniProt Q9NP77)	inactive: 0
SRSF3 (UniProt P84103)	active: 1
SMC2 (UniProt O95347)	inactive: 0
STK38L (UniProt Q9Y2H1)	inactive: 0
STRADA (UniProt Q7RTN6)	inactive: 0
SRP9 (UniProt P49458)	inactive: 0
SIK3 (UniProt Q9Y2K2)	inactive: 0
SNX12 (UniProt Q9UMY4)	inactive: 0
SIN3A (UniProt Q96ST3)	inactive: 0
STK11 (UniProt Q15831)	inactive: 0
SYNJ2 (UniProt O15056)	inactive: 0
SSH2 (UniProt Q76I76)	inactive: 0
SUPT16H (UniProt Q9Y5B9)	inactive: 0
STX5 (UniProt Q13190)	inactive: 0
STRN3 (UniProt Q13033)	active: 1
SIPA1L1 (UniProt O43166)	inactive: 0
SUMO1 (UniProt P63165)	inactive: 0
SNX27 (UniProt Q96L92)	active: 1
SUB1 (UniProt P53999)	inactive: 0
SRRM1 (UniProt Q8IYB3)	active: 1

For convenience, part of the list above.
Target	dose-dependent thermal stabilisation call
SYNJ2 (UniProt O15056)	inactive: 0
SSH2 (UniProt Q76I76)	inactive: 0
